Taken from: PubChem BioAssay AID1224830 (NIAID, 2016)

Screen: 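Genes whose knock-down alters the TNF-alpha reporter response to LPS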 (primary screen)
System: human THP-1 monocytic leukaemia cells, TNF dual-luciferase reporter clone, PMA-differentiated to macrophage-like cells
Reagents: siRNA pool against human genes, 50 nM
Duration: LPS for 4 h, given about 3 days after siRNA transfection
Challenge: bacterial LPS (TLR4 ligand), 10 ng/ml
Read-out: 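TNF firefly reporter luminescence divided by renilla, normalised to the plate median, then turned into a robust z-score for each replicate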
Reading the numbers: TNF reporter robust z-score: higher = stronger TNF reporter response to LPS
Active means: 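Each well counts as active if its z-score is over 2.8 or under -1.5; controls are left without a call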
This is a random part of about 18,000 reagents. Over the whole deposit, about 2,900 (16%) are marked active. 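Calls are made per well; low scores hint the gene aids the LPS response, high scores that it dampens it.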 A number with no mark means an inactive call. Repeated entries: four replicate wells of each siRNA pool.

gene	TNF reporter robust z-score
DRAXIN (dorsal inhibitory axon guidance protein)	-1.7 (active)
DRAXIN (dorsal inhibitory axon guidance protein)	-0.99
DRAXIN (dorsal inhibitory axon guidance protein)	-1.66 (active)
DRAXIN (dorsal inhibitory axon guidance protein)	-1.49
SH3RF3 (SH3 domain containing ring finger 3)	-0.2
SH3RF3 (SH3 domain containing ring finger 3)	-0.13
SH3RF3 (SH3 domain containing ring finger 3)	-0.82
SH3RF3 (SH3 domain containing ring finger 3)	0.1
APAF1 (apoptotic peptidase activating factor 1)	0.23
APAF1 (apoptotic peptidase activating factor 1)	0.71
APAF1 (apoptotic peptidase activating factor 1)	-0.42
APAF1 (apoptotic peptidase activating factor 1)	-0.38
GPALPP1 (GPALPP motifs containing 1)	1.5
GPALPP1 (GPALPP motifs containing 1)	1.44
GPALPP1 (GPALPP motifs containing 1)	1.17
GPALPP1 (GPALPP motifs containing 1)	0.68
CPLX1 (complexin 1)	0.21
CPLX1 (complexin 1)	-0.08
CPLX1 (complexin 1)	-0.35
CPLX1 (complexin 1)	0.32
INSYN1 (inhibitory synaptic factor 1)	0.16
INSYN1 (inhibitory synaptic factor 1)	-0.01
INSYN1 (inhibitory synaptic factor 1)	-0.02
INSYN1 (inhibitory synaptic factor 1)	0.89
CDHR4 (cadherin related family member 4)	-1.67 (active)
CDHR4 (cadherin related family member 4)	-1.57 (active)
CDHR4 (cadherin related family member 4)	-1.79 (active)
CDHR4 (cadherin related family member 4)	-0.55
PTPN13 (protein tyrosine phosphatase non-receptor type 13)	0.01
PTPN13 (protein tyrosine phosphatase non-receptor type 13)	-0.63
PTPN13 (protein tyrosine phosphatase non-receptor type 13)	0.23
PTPN13 (protein tyrosine phosphatase non-receptor type 13)	0.07
HDDC3 (HD domain containing 3)	-0.31
HDDC3 (HD domain containing 3)	0.16
HDDC3 (HD domain containing 3)	-0.4
HDDC3 (HD domain containing 3)	0.7
RPE (ribulose-5-phosphate-3-epimerase)	-1.34
RPE (ribulose-5-phosphate-3-epimerase)	-1.14
RPE (ribulose-5-phosphate-3-epimerase)	-1.26
RPE (ribulose-5-phosphate-3-epimerase)	-0.79
PSORS1C2 (psoriasis susceptibility 1 candidate 2)	-1.17
PSORS1C2 (psoriasis susceptibility 1 candidate 2)	-0.22
PSORS1C2 (psoriasis susceptibility 1 candidate 2)	-1.9 (active)
PSORS1C2 (psoriasis susceptibility 1 candidate 2)	-1.38
ABCC3 (ATP binding cassette subfamily C member 3)	-0.1
ABCC3 (ATP binding cassette subfamily C member 3)	-0.02
ABCC3 (ATP binding cassette subfamily C member 3)	-0.39
ABCC3 (ATP binding cassette subfamily C member 3)	0.3
SORBS3 (sorbin and SH3 domain containing 3)	-1.06
SORBS3 (sorbin and SH3 domain containing 3)	-0.37
SORBS3 (sorbin and SH3 domain containing 3)	-1.02
SORBS3 (sorbin and SH3 domain containing 3)	-0.28
ANXA6 (annexin A6)	-0.99
ANXA6 (annexin A6)	-0.04
ANXA6 (annexin A6)	0
ANXA6 (annexin A6)	0.71
LORICRIN (loricrin cornified envelope precursor protein)	-1.33
LORICRIN (loricrin cornified envelope precursor protein)	-1
LORICRIN (loricrin cornified envelope precursor protein)	-0.97
LORICRIN (loricrin cornified envelope precursor protein)	0
YPEL1 (yippee like 1)	-1.24
YPEL1 (yippee like 1)	-0.83
YPEL1 (yippee like 1)	-0.4
YPEL1 (yippee like 1)	-0.24
TJP2 (tight junction protein 2)	0.07
TJP2 (tight junction protein 2)	1.52
TJP2 (tight junction protein 2)	-0.56
TJP2 (tight junction protein 2)	0.52
C3orf18 (chromosome 3 open reading frame 18)	-1.23
C3orf18 (chromosome 3 open reading frame 18)	-1.02
C3orf18 (chromosome 3 open reading frame 18)	-1.11
C3orf18 (chromosome 3 open reading frame 18)	-1.13

The list goes on; the last 18 above are carried over.
gene	TNF reporter robust z-score
ANXA6 (annexin A6)	0
ANXA6 (annexin A6)	0.71
LORICRIN (loricrin cornified envelope precursor protein)	-1.33
LORICRIN (loricrin cornified envelope precursor protein)	-1
LORICRIN (loricrin cornified envelope precursor protein)	-0.97
LORICRIN (loricrin cornified envelope precursor protein)	0
YPEL1 (yippee like 1)	-1.24
YPEL1 (yippee like 1)	-0.83
YPEL1 (yippee like 1)	-0.4
YPEL1 (yippee like 1)	-0.24
TJP2 (tight junction protein 2)	0.07
TJP2 (tight junction protein 2)	1.52
TJP2 (tight junction protein 2)	-0.56
TJP2 (tight junction protein 2)	0.52
C3orf18 (chromosome 3 open reading frame 18)	-1.23
C3orf18 (chromosome 3 open reading frame 18)	-1.02
C3orf18 (chromosome 3 open reading frame 18)	-1.11
C3orf18 (chromosome 3 open reading frame 18)	-1.13
CCDC86 (coiled-coil domain containing 86)	-0.61
CCDC86 (coiled-coil domain containing 86)	-0.5
CCDC86 (coiled-coil domain containing 86)	-0.7
CCDC86 (coiled-coil domain containing 86)	-0.54
TBCB (tubulin folding cofactor B)	0.83
TBCB (tubulin folding cofactor B)	0.65
TBCB (tubulin folding cofactor B)	0.68
TBCB (tubulin folding cofactor B)	0.22
ZNF280C (zinc finger protein 280C)	-0.14
ZNF280C (zinc finger protein 280C)	0.18
ZNF280C (zinc finger protein 280C)	0.75
ZNF280C (zinc finger protein 280C)	-0.2
OR9G9 (olfactory receptor family 9 subfamily G member 9)	-0.91
OR9G9 (olfactory receptor family 9 subfamily G member 9)	-0.07
OR9G9 (olfactory receptor family 9 subfamily G member 9)	0.05
ZNF805 (zinc finger protein 805)	0.35
ZNF805 (zinc finger protein 805)	0.28
ZNF805 (zinc finger protein 805)	-0.42
ZNF805 (zinc finger protein 805)	0.49
KLC4 (kinesin light chain 4)	0.31
KLC4 (kinesin light chain 4)	1.64
KLC4 (kinesin light chain 4)	-0.18
KLC4 (kinesin light chain 4)	1.66
FLRT1 (fibronectin leucine rich transmembrane protein 1)	1.1
FLRT1 (fibronectin leucine rich transmembrane protein 1)	0.82
FLRT1 (fibronectin leucine rich transmembrane protein 1)	0.52
FLRT1 (fibronectin leucine rich transmembrane protein 1)	0.43
TMC5 (transmembrane channel like 5)	1.31
TMC5 (transmembrane channel like 5)	0.09
TMC5 (transmembrane channel like 5)	0.66
TMC5 (transmembrane channel like 5)	0.1
GNL2 (G protein nucleolar 2)	-1.07
GNL2 (G protein nucleolar 2)	0.17
GNL2 (G protein nucleolar 2)	-0.99
GNL2 (G protein nucleolar 2)	-1.02
PNPLA4	0.07
PNPLA4	2.84 (active)
PNPLA4	3.66 (active)
PNPLA4	3.65 (active)
L3MBTL2 (L3MBTL histone methyl-lysine binding protein 2)	-0.39
L3MBTL2 (L3MBTL histone methyl-lysine binding protein 2)	2.33
L3MBTL2 (L3MBTL histone methyl-lysine binding protein 2)	0.38
L3MBTL2 (L3MBTL histone methyl-lysine binding protein 2)	2.54
CCDC124 (coiled-coil domain containing 124)	-0.1
CCDC124 (coiled-coil domain containing 124)	0.3
CCDC124 (coiled-coil domain containing 124)	-0.84
DSE (dermatan sulfate epimerase)	-1.58 (active)
DSE (dermatan sulfate epimerase)	-1.36
DSE (dermatan sulfate epimerase)	-0.85
DSE (dermatan sulfate epimerase)	0.12
PCED1B (PC-esterase domain containing 1B)	2.31
PCED1B (PC-esterase domain containing 1B)	0.93
PCED1B (PC-esterase domain containing 1B)	0.65
PCED1B (PC-esterase domain containing 1B)	2
PON1 (paraoxonase 1)	-0.01
PON1 (paraoxonase 1)	1.97
PON1 (paraoxonase 1)	0.65
PON1 (paraoxonase 1)	0.31
NOS1AP (nitric oxide synthase 1 adaptor protein)	3.25 (active)
NOS1AP (nitric oxide synthase 1 adaptor protein)	0.53
NOS1AP (nitric oxide synthase 1 adaptor protein)	-0.99
NOS1AP (nitric oxide synthase 1 adaptor protein)	0.42
PPP1R2 (protein phosphatase 1 regulatory inhibitor subunit 2)	-0.65
PPP1R2 (protein phosphatase 1 regulatory inhibitor subunit 2)	-0.01
PPP1R2 (protein phosphatase 1 regulatory inhibitor subunit 2)	-0.72
PPP1R2 (protein phosphatase 1 regulatory inhibitor subunit 2)	-0.62
RHBDF2 (rhomboid 5 homolog 2)	-0.5
RHBDF2 (rhomboid 5 homolog 2)	-0.2
RHBDF2 (rhomboid 5 homolog 2)	-0.13
RHBDF2 (rhomboid 5 homolog 2)	-0.59
